Source: PMC11166458, “Caskin2 is a novel talin- and Abi1-binding protein that promotes cell motility” (Journal of Cell Science, 2024)

Tested on: talin-R7R8 (residues 1358–1653), R8 domain
Assay: X-ray structure of talin-R7R8 in complex with Caskin2-LD peptide, interface analysis
Assay type: binding, murine
Procedure: A codon-optimized synthetic gene encoding murine talin-R7/R8 domains (residues 1358–1653) was cloned into the pETNKI-6xhis-3C-LIC vector ([Luna-Vargas et al., 2011]). The 6×his–3C–talin-R7/R8 protein was expressed in Bl21(DE3) cells, for 18 h at 20°C upon induction with 0.4 mM IPTG. Cells were harvested by centrifugation (4000 g for 15 min) and stored at −20°C. After thawing, cells were resuspended in lysis buffer [25 mM Tris-HCl pH 8.0, 10 mM imidazole, 200 mM NaCl, 1 mM TCEP and 5 μg/ml DNase (Roche)] and lysed by sonication. The soluble lysate fractions were collected after centrifugation (55,000 g at 4°C for 30 min) and applied to a nickel Sepharose column. Beads were washed with wash buffer (lysis buffer without DNase) and protein was eluted in the same buffer supplemented with 250 mM imidazole. The 6×His tag was cleaved off by his-3C protease during dialysis against 25 mM Tris-HCl pH 8.0, 100 mM NaCl, 1 mM TCEP for 16 h at 4°C. The protein solution was diluted with an equal volume of 25 mM Tris-HCl pH 8.0, 1 mM TCEP before his-3C protease and uncleaved 6×his–talin-R7/R8 were removed by nickel Sepharose. The protein was further purified by anion exchange chromatography (Resource Q column, Cytiva) followed by size exclusion chromatography (S75 Superdex 16/60, Cytiva) in 25 mM Tris-HCl pH 8.0, 100 mM NaCl, 1 mM TCEP. Talin-R7/R8 eluted in a single peak. The protein was concentrated to 32 mg/ml and aliquots were snap-frozen in liquid nitrogen and stored at −80°C.
Purified talin-R7/R8 protein (32 mg ml^−1) was mixed with solubilized Caskin2 LD peptide in a 1:2 molar ratio of protein to peptide. Crystallization screening was performed using the vapor diffusion sitting-drop method; droplets of 200 nl, composed of equal volumes of protein complex and crystallization agent, were prepared using a Mosquito dropsetter (SPT Labtech) as described previously ([Newman et al., 2005]). […] Diffracting crystals were grown in 0.1 M bis-Tris propane pH 7.0, 0.1 M NaBr and 22–26% PEG3350. Crystals were cryo-protected by increasing the PEG3350 concentration to 30% and by addition of 10% glycerol before vitrifying them in liquid nitrogen.
Crystallographic data were collected at the PX1 beamline at the Swiss Light Source (SLS), Villigen, Switzerland and processed with XDS ([Kabsch, 2010]) and Aimless ([Evans and Murshudov, 2013]). The phase problem was solved by molecular replacement using Phaser ([McCoy et al., 2007]) and two separate search models, using the Talin R7 and R8 domains (PDB: 5FZT) ([Zacharchenko et al., 2016]). After a few cycles of model building in Coot ([Emsley et al., 2010]) and model refinement in REFMAC5 ([Kovalevskiy et al., 2018]), the electron density for Caskin-2 peptide was clearly visible. […]

Caskin2-LD peptide: C-terminal LD motif peptide of Caskin2 (residues 1187–1202) (STMFDALADQLDAMLD; Atto488 label)
buried interface area (crystal structure at 2.7 Å, PDB 7ZW4): 790 Å
buried surface area of F1190 (residue F1190): 113 Å
buried surface area of L1197 (residue L1197): 105 Å
buried surface area of L1201 (residue L1201): 104 Å
